Source: patent US20110014213A1 (JURIDICAL FDN THE CHEMO SERO THERAP RES INS, published 2011)
Changes are numbered by the printed parent chain. No constants are given. Whether binding was seen depends on the method and setting. Some binding calls cover weakened binding; strength is not graded here. For some assays here: Sequences can lack the tags named with a protein. One block for each binder: values may come before it.

Columns and labels:
mouse α9 integrin [1] = molecular target: T1, mouse α9 integrin (mouse, UniProt B8JK39 29-1036); experiment: Cell ELISA on SW480/mα9
T1 chain: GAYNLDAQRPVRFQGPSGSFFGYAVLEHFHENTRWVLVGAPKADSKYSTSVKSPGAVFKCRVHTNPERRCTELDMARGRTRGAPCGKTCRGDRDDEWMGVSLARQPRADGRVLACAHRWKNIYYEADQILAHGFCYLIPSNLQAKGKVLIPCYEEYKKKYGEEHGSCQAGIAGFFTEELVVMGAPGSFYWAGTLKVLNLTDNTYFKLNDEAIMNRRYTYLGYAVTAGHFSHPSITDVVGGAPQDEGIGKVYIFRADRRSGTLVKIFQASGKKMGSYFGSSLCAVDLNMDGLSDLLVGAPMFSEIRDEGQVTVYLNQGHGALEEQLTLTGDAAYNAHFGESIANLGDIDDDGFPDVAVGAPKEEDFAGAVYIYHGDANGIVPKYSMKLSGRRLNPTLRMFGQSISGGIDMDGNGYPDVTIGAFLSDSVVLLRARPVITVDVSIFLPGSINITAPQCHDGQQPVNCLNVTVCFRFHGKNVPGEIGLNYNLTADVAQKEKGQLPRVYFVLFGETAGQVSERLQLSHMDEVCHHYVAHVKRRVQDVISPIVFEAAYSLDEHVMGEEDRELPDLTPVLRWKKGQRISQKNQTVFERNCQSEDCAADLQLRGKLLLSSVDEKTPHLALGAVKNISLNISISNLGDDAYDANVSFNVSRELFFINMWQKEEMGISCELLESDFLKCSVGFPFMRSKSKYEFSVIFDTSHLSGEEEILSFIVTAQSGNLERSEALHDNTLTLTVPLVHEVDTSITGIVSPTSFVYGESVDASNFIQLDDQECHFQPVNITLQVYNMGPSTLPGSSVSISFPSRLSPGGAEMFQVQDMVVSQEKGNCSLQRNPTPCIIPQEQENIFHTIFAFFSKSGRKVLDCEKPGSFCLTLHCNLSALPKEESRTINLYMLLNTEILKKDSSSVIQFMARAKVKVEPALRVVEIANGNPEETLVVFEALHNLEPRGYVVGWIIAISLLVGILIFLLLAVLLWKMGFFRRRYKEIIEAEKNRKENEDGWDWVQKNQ

mouse α9 integrin [2] = molecular target: T1, mouse α9 integrin; experiment: flow cytometry on SW480/mα9
mouse α9 integrin [3] = molecular target: T1, mouse α9 integrin; experiment: summary of earlier Cell ELISA / flow cytometry
mouse α9 integrin [4] = molecular target: T1, mouse α9 integrin; experiment: Cell ELISA on CHO/mα9, anti-Etag detection
mouse α9 integrin [5] = molecular target: T1, mouse α9 integrin; experiment: Cell ELISA of scFv
mouse α9 integrin [6] = molecular target: T1, mouse α9 integrin; experiment: summary of Examples 18-24; format not named (scFv-Fc taken)
mouse α9 integrin [7] = molecular target: T1, mouse α9 integrin; experiment: competition Cell ELISA, serially diluted scFv-Fc; competitor MA9-413 phage antibody
mouse α9 integrin [8] = molecular target: T1, mouse α9 integrin; experiment: Cell ELISA of IgG in culture supernatant, anti-human IgG(Fc) detection

B2: MA9-413 scFv (scFv, not shown: small tags and cut ends)
scFv: EVQLVESGGGVVRPGGSLRLSCAASGFAFGDYGMSWVRQAPGKGLEWVSGINWNGGSTGYADSVKGRFTTSRDNAKNSLYLQMNSLRAEDTALYYCARDENYDILTGYYYYGMDVWGQGTTVTVSSGGGGSGGGGSGGGGSQSVVTQPPSVSAAPGQKVTISCSGSSSNIGNNYVSWYQQLPGTAPKLLIYDNNKRPSGIPDRFSASKSGTSATLGITGLQTGDEADYYCGTWDSSLTVWAFGGGTKLTVLG
- binding (mouse α9 integrin [4]): binds

B4: HA9-212 scFv-Fc (Fc fusion, not shown: a dimerising Fc or GST)
scFv: B2 scFv with D31E, K65Q, Y108N
- binding (mouse α9 integrin [6]): binds
- binding (mouse α9 integrin [7]): binds

B5: HA9-143 scFv-Fc (Fc fusion, not shown: a dimerising Fc or GST)
scFv: B2 scFv with D31E, Y108H
- binding (mouse α9 integrin [6]): binds
- binding (mouse α9 integrin [7]): binds

B7: HA9-107 scFv-Fc (Fc fusion, not shown: a dimerising Fc or GST)
scFv: B2 scFv with G107N, Y108E
- binding (mouse α9 integrin [6]): binds
- binding (mouse α9 integrin [7]): binds

B8: HA9-212 IgG (antibody, V domains shown)
VH: EVQLVESGGGVVRPGGSLRLSCAASGFAFGEYGMSWVRQAPGKGLEWVSGINWNGGSTGYADSVQGRFTTSRDNAKNSLYLQMNSLRAEDTALYYCARDENYDILTGNYYYGMDVWGQGTTVTVSS
VL: QSVVTQPPSVSAAPGQKVTISCSGSSSNIGNNYVSWYQQLPGTAPKLLIYDNNKRPSGIPDRFSASKSGTSATLGITGLQTGDEADYYCGTWDSSLTVWAFGGGTKLTVLG
notes: VH joined to human IgG1 constant region; VL joined to 'human x chain constant region'; Tested as culture supernatant of COS-7 / FreeStyle 293-F cells
- binding (mouse α9 integrin [8]): binds

Now from value to binder:

- binding (mouse α9 integrin [1]): binds
- binding (mouse α9 integrin [2]): binds
- binding (mouse α9 integrin [3]): binds
B1: MA9-413 scFv-Fc (Fc fusion)
scFv: B2 scFv
notes: Divalent scFv-Fc with mouse IgG1 Fc, expressed in CHO-DG44; also called ANM-2; not shown: Fc region of mouse IgG1 and its junction to the scFv

- binding (mouse α9 integrin [5]): binds
B3: MA9-418 scFv (scFv, not shown: small tags and cut ends)
scFv: B2 scFv with Y108A

- binding (mouse α9 integrin [6]): binds
- binding (mouse α9 integrin [7]): binds
B6: MA9-418 scFv-Fc (Fc fusion, not shown: a dimerising Fc or GST)
scFv: B2 scFv with Y108A
